{
  "sequences": {"note": "Amino acid sequences for entries named in this document (tags omitted). Residues count along the entry.", "UniProt P05107, residues 23-769": "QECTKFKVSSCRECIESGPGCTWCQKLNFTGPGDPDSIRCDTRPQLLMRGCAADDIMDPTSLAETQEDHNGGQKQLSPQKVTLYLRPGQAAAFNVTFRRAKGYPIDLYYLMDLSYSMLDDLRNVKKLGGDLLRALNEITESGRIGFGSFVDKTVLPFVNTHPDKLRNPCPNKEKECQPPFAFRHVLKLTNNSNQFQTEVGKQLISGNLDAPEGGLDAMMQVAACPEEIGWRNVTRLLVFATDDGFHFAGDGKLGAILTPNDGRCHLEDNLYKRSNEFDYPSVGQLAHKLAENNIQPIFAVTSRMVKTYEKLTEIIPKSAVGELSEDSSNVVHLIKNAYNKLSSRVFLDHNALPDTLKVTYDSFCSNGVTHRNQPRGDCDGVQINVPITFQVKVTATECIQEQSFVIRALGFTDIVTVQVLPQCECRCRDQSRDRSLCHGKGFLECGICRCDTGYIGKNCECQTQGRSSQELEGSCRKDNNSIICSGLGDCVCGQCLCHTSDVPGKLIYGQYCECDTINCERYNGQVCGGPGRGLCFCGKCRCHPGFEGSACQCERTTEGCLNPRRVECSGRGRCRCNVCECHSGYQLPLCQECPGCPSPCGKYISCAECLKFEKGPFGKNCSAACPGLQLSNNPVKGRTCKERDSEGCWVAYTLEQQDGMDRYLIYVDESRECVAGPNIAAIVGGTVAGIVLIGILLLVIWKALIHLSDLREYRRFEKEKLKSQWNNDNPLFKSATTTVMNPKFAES", "UniProt Q15389, residues 16-498": "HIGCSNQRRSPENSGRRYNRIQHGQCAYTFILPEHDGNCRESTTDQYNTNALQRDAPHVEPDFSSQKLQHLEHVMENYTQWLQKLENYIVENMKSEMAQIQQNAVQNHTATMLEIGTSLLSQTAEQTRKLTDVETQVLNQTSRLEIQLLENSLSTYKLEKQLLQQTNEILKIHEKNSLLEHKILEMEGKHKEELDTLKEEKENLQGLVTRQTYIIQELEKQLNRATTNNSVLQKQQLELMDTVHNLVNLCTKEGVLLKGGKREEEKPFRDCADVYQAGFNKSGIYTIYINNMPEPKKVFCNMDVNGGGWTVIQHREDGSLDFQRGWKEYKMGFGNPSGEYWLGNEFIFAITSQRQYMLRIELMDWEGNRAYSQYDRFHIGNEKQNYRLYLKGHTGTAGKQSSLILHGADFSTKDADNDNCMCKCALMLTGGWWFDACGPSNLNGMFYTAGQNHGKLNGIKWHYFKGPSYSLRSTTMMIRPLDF"},
  "source": "paper PMC5443761",
  "molecular_target": "CD18 (β2 integrin) on human neutrophils (human (endogenous in human neutrophils)) (UniProt P05107)",
  "assay": "co-IP + cross-linking; isolated human neutrophils treated with rhAng-1 (0.7 µg/10^6 neutrophils) or PBS and the extracellular cross-linker DTSSP; lysed (0.3% CHAPS buffer); immunoprecipitated overnight at 4 °C with anti-CD18 IgG on protein G-Sepharose; immunoblot with anti-CD18 and anti-angiopoietin-1; only the binder purified",
  "note": "Results are given in words; binding and its absence hold for the method and conditions named. In cells and extracts the contact can be indirect. Some results given as binding are weak or reduced against the parent protein; the word gives no strength.",
  "data": [
    {"substance": "recombinant human angiopoietin-1 (from UniProt Q15389 16-498) (ligand)", "values": [
      {"measurement": "binding", "result": "binds weakly"}
    ]}
  ]
}
